Measured values published in patent US20240158693A1, “Probe for Hydrogen Sulfide Detection, Method for Manufacturing Same, and Composition for Hydrogen Sulfide Detection, Comprising Same” (Korea Institute of Ocean Science &Technology, priority 2020, published 2024).

Assay: Quantitative detection of spiked H2S in human serum
Details: for Found: human serum

CCN(CC)c1ccc(-c2cc3c(s2)c(-c2ccc(OS(=O)(=O)c4ccc([N+](=O)[O-])cc4[N+](=O)[O-])cc2)cc(=O)n3C)cc1 [KF-DNBS, 4-(2-(4-(diethylamino)phenyl)-4-methyl-5-oxo-4,5-dihydrothieno[3,2-b]pyridin-7-yl)phenyl 2,4-dinitrobenzenesulfonate]
effect of analytes present in human serum on fluorescence response to spiked H2S (human serum with biothiols and proteins, no additional process): unaffected | Found (H2S added 25 μM): 26 µM | Found (H2S added 50 μM): 51 µM | Found (H2S added 100 μM): 95 µM | Found (H2S added 150 μM): 163 µM
